Reference: the RNAGym collection of RNA variant scans (doi:10.1126/science.aae0568)
This sample is rich in variants without activity.

B1: tRNA (parent)
chain: GUUCCGUUGGCGUAAUGGUAACGCGUCUCCCUCCUAAGGAGAAGACUGCGGGUUCGAGUCCCGUACGGAACG

Variants of: B1
Test: yeast fitness relative to wild type (ratio to wild type); higher = fitter; tRNA-Arg(CCU), competitive growth, 37 C, YPD
Summary of the method: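 Changes in genotype frequencies gave Darwinian fitness relative to wild type. Frequencies were read by 100-nucleotide paired-end sequencing of gene amplicons before and after pooled Saccharomyces cerevisiae strains, carrying tRNA-Arg(CCU) gene variants at the native locus, were competed in YPD at 37°C for 24 hours in six replicates. A genotype was kept only with ≥ 100 starting reads, and estimates < 0.5 were set to 0.5.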

Question: With GUUCCGUUGGCGUAAUGGUAACGCGUCUCUCUCCUAAGGAGAAAACUGCGGGUUCGUGUCCCGUACGGAACG as the variant, how does the yeast fitness read?
Answer: ≤ 0.5

Question: For GUUCCGUUGGUGUAAUGGUUACGCGUCUCCCUCCUAAGGAGAGGACUGCGGCCUCGAGUCCCCUACGGAACG, which yeast fitness is on record?
Answer: ≤ 0.5

Question: Which yeast fitness does the source give for GUUCCGUUGGCGCAAUGGUAACGCGUCUCCCUCGUAAGGAGAUGACUGCGGGUUCGAGUCCCGUACGGAACG here?
Answer: ≤ 0.5

Question: For GUUCCGUUGGCAUGAAGGUAACGCGUCUCCCUACUAAGGAGAAGACUGCGGGUUUGAGUCCCGUACGGAACG, which yeast fitness is on record?
Answer: ≤ 0.5

Question: With GUUCCGUUGGCGUGAUGGUAACGCGUUUCCGUCCUAAGGAGACGACUGGGGCUUCGAGACCCGUACGGAACG as the variant, how does the yeast fitness read?
Answer: ≤ 0.5

Question: For GUUCCGUUGGCGUAAUGGUACCGCCGCUCCCUCCUAAGGAGAAGACUACGGGUUCGACUCCCGUACGGAACG, which yeast fitness is on record?
Answer: ≤ 0.5

Question: Which yeast fitness does the source give for GUUCCGUUGGCGUAAUGGUAACGGGUCUCCCUGCUAAGGAGAAGACUGCGGGUUCGAGCCCCGUACGGAACG here?
Answer: ≤ 0.5

Question: With GUUCCGUUGGCGUAAUGGUAACGCGUCUCCCCCCUAAGGAGAAGACUGCGGAUUCGAGUCCCGUUCGGAACG as the variant, how does the yeast fitness read?
Answer: ≤ 0.5

Question: Which yeast fitness does the source give for GUUCCGUUGGCGUAAUGGUAACGCGUCUCCCAGCUAAGGAGAAGACUGCGGGUUCGAGUCUUGUACGGAACG here?
Answer: ≤ 0.5

Question: With GUCCCGUUGGCGUAACGGUAAUGCGUCUCGGUCCUAUGGAGAAGACUGCGGGUUCGAGUCCCGUACGGAACG as the variant, how does the yeast fitness read?
Answer: ≤ 0.5

Question: With GUUCCGUUGGCGUAAUGGUAACGCGUCUCCCUCCUCUGGAGAAGACUGCCGGUUCGAGUCCCGUAUGGAACG as the variant, how does the yeast fitness read?
Answer: 0.56

Question: Which yeast fitness does the source give for GUUCCGUUGGCGUAAUGGUAACGCGUCUCCCUCCUAAGGAGAAGUGUGCGGGUUCGAGUCCCGUACGGCACG here?
Answer: ≤ 0.5

Question: For GUUCCGUUGGCGUAACGGUCACGCGUCUCCCUCCUAAGGAGAAGACUGCGGGUUCGAGUCCCGUUCGAAACG, which yeast fitness is on record?
Answer: ≤ 0.5

Question: Which yeast fitness does the source give for GUUCCGUUGGCGUAAUGGUAACGCGUCUCCCUUCUAAGGAGAAGACUGCGGGUUCGGGACCCGUACGGAACG here?
Answer: ≤ 0.5

Question: With GUUCCGUUGGCGUAAUGGUAACGCGUCUUCCUCGUAAGGAGAAGACCGCGGGUUCGAGUCCCGUACGGAACG as the variant, how does the yeast fitness read?
Answer: ≤ 0.5

Question: For GUACCGUUGGCGUUAUGGUAACGCGUCUCCCUCCUAAGGAGAAGACUACGGGUUCGCGCCCCGUACGGAACG, which yeast fitness is on record?
Answer: ≤ 0.5

Question: For GUUCCGUUGGCGUAAUGGUAACGCGUGUCCCUCCUAAGGAGAAGACUGCGGGUUCGGGUACCGUAGGGAACG, which yeast fitness is on record?
Answer: ≤ 0.5

Question: Which yeast fitness does the source give for GUUCCGUUGGCGUAAUGCUAACGCCUCUCCCUCCUAAGGAGAAGACUGCGGGUUCGAGUCCCGUACGGAACG here?
Answer: 0.677

Question: For GUUCCGUUGGCGUAAUCGUAACGCGUCUCCCUCCUGAGGAGAAGGCUGCGGGUUCGAGUCCCGUACGGAACG, which yeast fitness is on record?
Answer: 0.505

Question: With GUUCCAUUGGCGUAAUGGUAACGCGUCUUCUUGCCAAGGAGAAGACUGCGGGUUCGAGUCCCGUACGGAACG as the variant, how does the yeast fitness read?
Answer: ≤ 0.5

Question: With GUGCCGUUGGCCUAAUGGUAACGCGUCUCCCUCCUAAGGAGAAGACUGCGGGUUGGAGUCCCGUAUGGAACG as the variant, how does the yeast fitness read?
Answer: ≤ 0.5

Question: With GUUCCGUUGGCGUAAUGGUAACGCGUCUCCCUCCUAACGAGAAGACUGCGGGUUCGAGUCCCGUAUAGAACG as the variant, how does the yeast fitness read?
Answer: ≤ 0.5

Question: With GUUCCGUUGGCGUAAUGGUAACGCGUCUCCCUCCUAAGAACAAGACAGCCGGUUCGUGUCCCGUACGGAACG as the variant, how does the yeast fitness read?
Answer: ≤ 0.5

Question: With GUUCCGUUGGCGUAAUGGUAACGCGUCUCCCUCCUAAGGAGAAGACUGUGGGUUCGACUCCGGUACGGCACG as the variant, how does the yeast fitness read?
Answer: 0.559

Question: For GCACCGUUGGCGUAAUGGUAACGCGUCUCCCUCCUAAGGAGAAGACUGCGGGUUCGUGUCCUGUACGGAACG, which yeast fitness is on record?
Answer: ≤ 0.5

Question: Which yeast fitness does the source give for GGUCCGUUGGCGUAAGGGUAACGCGUAUCCCUCCUCAGGAGAAGACUGCGGGUUCGAGUCCCGUACGGAACG here?
Answer: ≤ 0.5

Question: With GUUCCGUUGGCGUAAUGGUAACGGGUCUCCCACCUAAGGAGAAGACUGCGGGUUGGAGUCCCGUACGGAACG as the variant, how does the yeast fitness read?
Answer: ≤ 0.5

Question: Which yeast fitness does the source give for GUUCCGUUGGCGUAAUGGUAACGCGUCUCUCUCCUAAGGAGAAGACCGCGGGUACGAGUCCCGUACGGAACG here?
Answer: ≤ 0.5

Question: With GUUCGGUUGGAGUAAUGGUGACGCGUCCCCCUUCUAAGGAGAAGACUGCGGGUUCGAGUCCCGUACGGAACG as the variant, how does the yeast fitness read?
Answer: ≤ 0.5

Question: Which yeast fitness does the source give for GUUCAGUUGGCGUAAUGGUAACGCGUCUCCCUCCUAAGGAGAAGACUGCGGGUUCGAGUCCCUUACGGAACG here?
Answer: 0.722

Question: For GUUCCGUUGGCGUAAUGGUAACGCGUCUCCCUCCUAAGCAGAAGACUGAGAGUUCGAGUCCCGUACGGAACG, which yeast fitness is on record?
Answer: ≤ 0.5

Question: Which yeast fitness does the source give for GUUCCAUUGGCGUACUGGUAACGCGUCUCCCUCCUAAGGAGAAGACUGCGGGUUCGGGUCCCGAAAGGCACG here?
Answer: ≤ 0.5

Question: With GUUCCGUUGGCGUAAUGGUAACGCGUCUCCCUCAUAAGGAGAAGACUGCGGGAUCGAGUCCCGUACGGAACG as the variant, how does the yeast fitness read?
Answer: 0.541

Question: Which yeast fitness does the source give for GUUGCGUGGGCGUAAUGGUAACGCGUGUCCCUCCUAAGGAGAAGACUGCGGGUUCAAGUCCCGUACGGAACG here?
Answer: ≤ 0.5

Question: For GUUCCGUUGGCGUAAUGGUAACGCAUCUUCCUCCUAAGGAGAAGACUGCGGGUUCGAGUCCCGUAUGGAACG, which yeast fitness is on record?
Answer: 0.747

Question: Which yeast fitness does the source give for GUUCCGUUGACGUAAUGGUAACGCGUCUCCCUUCUAAGGAGAAGACUGCGGGUUCGAGUGCCGUACAGAACG here?
Answer: ≤ 0.5

Question: With GUUCCGUUGGCGUAAUGGUAACGCGUCUCCCUCCUAAGGAGAAGACUGCGGGUUCGUGUCCCGUUCACAACG as the variant, how does the yeast fitness read?
Answer: ≤ 0.5

Question: Which yeast fitness does the source give for GUUCCGUUGGCGUAAUGGUAACGCGGCUCCCUCCUAAGGAGAAGACUGCGGGUUCGAGUCCGGUACGAAACG here?
Answer: ≤ 0.5
